Laboratory results published in US10718770B2, “Methods for screening compounds for treating or preventing a viral infection or a virus-related condition” (ABIVAX, priority 2015, dated 2020).
At least one structure is not confirmed: it was looked up by name or label, or the drawing left a doubt.

Assays:
[1] = tested on: Rev-mediated export of viral RNA; experiment: HIV reporter system (MS2-GFP) in HeLa cells: Rev-mediated export of viral RNA; format: cell-based; settings: HeLa reporter cells expressing Rev
Text: FIG. 8. Compound 1 influences Rev-mediated HIV RNA biogenesis and export. A) Schematic representation of the HIV-1 reporter gene B) Visualization of GFP-MS2-Bound RNA in HeLa cells expressing tat, MS2-GFP and HIV-reporter transcripts in non transfected or transfected cells with Rev. Rev-transfected cells were untreated (DMSO) or treated with Compound 1. Arrow indicates transcription site. C) Quantitation of images corresponding to untreated (DMSO) or treated (Compound 1) in (B), in terms of: total GFP (upper panel) expressed in RFU or Relative Fluorescence Units; in the nucleoplasm (middle panel) expressed in Number of Foci in Rev-transfected cells; or at the start site (lower panel) expressed as a percentage of nuclei with a starting transcription point. Box-plots show the average GFP intensity (foci numbers or starting transcription point numbers) of Rev-transfected HeLa cells for each condition. Whiskers correspond to the minimum and maximum, boxes, to the 25-75 percentiles and the band inside the box, to the median. […]
Cells plated on cover slips were fixed for 10 min in 3.7% formaldehyde (in PBS) followed by a 2-min permeabilization with 0.1% Triton X-100 (in PBS) and incubation in PBS containing 0.1% bovine serum albumin. […] Cells were washed in PBS mounted with DAKO mounting medium and observed under the fluorescence microscope. […]

[2] = tested on: HIV-1 subtypes B, C and recombinant viruses; experiment: p24 inhibition in PBMCs infected with different HIV-1 strains (patient isolates); format: cell-based; settings: 5 μM, 6 days pi, subtype B
HIV-1 pre-mRNA splicing = experiment: HIV-1 pre-mRNA splicing, pΔPSP plasmid in transfected HeLa cells, RT-PCR; format: cell-based; settings: 5 uM or 10 uM
[3] = tested on: resistant mutants of NL4.3 strain (K103N, K65R and M184V); experiment: RT activity in human PBMCs infected with resistant mutants of NL4.3 strain; format: cell-based, HIV-1
HIV-1 = experiment: Selection of resistance-inducing mutations under long treatment; format: cell-based; settings: treatment for at least 24 weeks
HIV-1 strain Ada-MR5 = experiment: HIV-1 p24 production in infected activated PBMCs; format: cell-based; settings: stimulated PBMCs from different donors, 6 days post-infection

For `FC(F)(F)Oc1ccc(Nc2ccc3cccc(Cl)c3n2)cc1` [Compound 1, 8-chloro-N-(4-(trifluoromethoxy)phenyl)quinolin-2-amine], the “GFP signal at the transcription site and in the nucleoplasm” value [1] was “preserving the GFP signal”, the “inhibitory effect on HIV-1 subtypes (p24)” value [2] was “strong inhibitory effect” and the “splicing profile of HIV-1 mRNAs (Nef, Rev, Tat isoforms)” value (HIV-1 pre-mRNA splicing) was “did not alter the splicing profile”. The “inhibition of replication of viral strains harbouring resistance mutations” value [3] was “very efficiently inhibits”, the “resistance-inducing mutations after treatment” value (HIV-1) was “no resistance-inducing mutations detected” and the “inhibition of HIV-1 replication (p24)” value (HIV-1 strain Ada-MR5) was “dose dependent inhibition”.
